# Several values for one entry are separate records, joined by “and”; a condition that tells them apart may be missing. Equal values may be shown once. Where a name gives a salt, the structure may show the parent alone. This is one part of the list. Repeats in this data set agree poorly, so a single value says little.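 HEK293T cells were given each compound shortly before transfection with a reporter in which red mCherry is followed by the SARS-CoV-2 frameshift element and then GFP in the −1 frame, so GFP appears only after frameshifting.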
# System: HEK293T
# Assay: percent viability (nuclei count) relative to control; higher = more viable cells
# Conditions: 10 µM; 24 h
row,SMILES,percent viability
1,Nc1ccc(C(=O)O)cc1,183%
2,Cc1nc(NS(=O)(=O)c2ccc(N)cc2)oc1C [sulfamoxole],271%
3,CC[C@H](C)[C@H](N)C1=N[C@H](C(=O)N[C@@H](CC(C)C)C(=O)N[C@H](CCC(=O)O)C(=O)N[C@H](C(=O)N[C@H]2CCCCNC(=O)[C@H](CC(N)=O)NC(=O)[C@@H](CC(=O)O)NC(=O)[C@H](Cc3cnc[nH]3)NC(=O)[C@@H](Cc3ccccc3)NC(=O)[C@H]([C@@H](C)CC)NC(=O)[C@@H](CCCN)NC2=O)[C@@H](C)CC)CS1,225%
4,COc1ccc(-c2cc(C(F)F)nn2-c2ccc(S(N)(=O)=O)cc2)cc1F [deracoxib],319%
5,O=C1c2ccccc2S(=O)(=O)N1CCCN1CCN(c2ncccn2)CC1 [revospirone],369%
6,CSc1nc2cc(Cl)c(Oc3cccc(Cl)c3Cl)cc2[nH]1 [triclabendazole],190%
7,COc1cc(OC)cc(OCCO)c1 [floverine],106%
8,C[C@@H](O[C@H]1OCCN(Cc2n[nH]c(=O)[nH]2)[C@H]1c1ccc(F)cc1)c1cc(C(F)(F)F)cc(C(F)(F)F)c1 [Aprepitant],158% and 264%
9,CC(C)(C)c1cc(C(C)(C)C)c(NC(=O)c2c[nH]c3ccccc3c2=O)cc1O [Kalydeco],299%
10,O=C(CNC(=O)c1ccc(Cl)cc1)NO [benurestat],319%
11,O=C(N[C@@H](Cc1c[nH]c2ccccc12)C(=O)O)c1ccc(Cl)cc1 [benzotript],269%
12,NC(N)=NC(=O)Cc1c(Cl)cccc1Cl [Guanfacine·HCl],173%
13,CN(CC(=O)O)C(=N)N [Creatine],207%
14,CC1(C)[C@H](C(=O)O)N2C(=O)C[C@H]2S1(=O)=O [sulbactam],218%
15,O=C1NC(c2ccccc2)(c2ccccc2)C(=O)N1COP(=O)(O)O [fosphenytoin],141%
16,CCC(=O)OCC(=O)[C@@]1(OC(=O)CC)[C@@H](C)C[C@H]2[C@@H]3CCC4=CC(=O)C=C[C@]4(C)[C@@]3(Cl)[C@@H](O)C[C@@]21C [Vanceril],307%
17,COc1ccc(CN(CCN(C)C)c2ncccn2)cc1 [thonzylamine],118%
18,Cc1cc(C)[n+](/N=C(\[O-])c2ccc(Cl)c(S(N)(=O)=O)c2)c(C)c1 [besulpamide],341%
19,CC(=O)Oc1cccc(O)c1,409%
20,CCCCN(CCCC)C(=O)CN1C[C@H](c2ccc3c(c2)OCO3)[C@@H](C(=O)O)[C@@H]1c1ccc(OC)cc1 [atrasentan],128%

row,SMILES,percent viability
1,CC[C@H]1OC(=O)[C@H](C)[C@@H](O[C@H]2C[C@@](C)(OC)[C@@H](O)[C@H](C)O2)[C@H](C)[C@@H](O[C@@H]2O[C@H](C)C[C@H](N(C)C)[C@H]2O)[C@](C)(O)C[C@@H](C)C(=O)[C@H](C)[C@@H](O)[C@]1(C)O [erythromycin],228% and 211%
2,C[S+](CC[C@H](N)C(=O)[O-])C[C@H]1O[C@@H](n2cnc3c(N)ncnc32)[C@H](O)[C@@H]1O (stereo not given in full) [ademetionine],188%
3,NC(Cc1ccccc1)C(=O)O (stereo not given),185%
4,CC(C)=CCC/C(C)=C/CC/C(C)=C/C=C/C(C)=C/C(=O)O [peretinoin],248%
5,O=C(O)[C@H](CCc1ccccc1)N[C@H]1CCCN2CCC[C@@H](C(=O)O)N2C1=O [cilazaprilat],83.8%
6,Fc1ccc(Cn2c(NC3CCNCC3)nc3ccccc32)cc1 [tecastemizole],450%
7,CN(C)CCN(Cc1cccs1)c1ccccn1 [methapyrilene],296%
8,CC1(C)OC(=O)Nc2ccc(Br)cc21 [brofoxine],107%
9,CC(C)(C)CC(C)(C)c1cc(Cc2cc(C(C)(C)CC(C)(C)C)cc(-n3nc4ccccc4n3)c2O)c(O)c(-n2nc3ccccc3n2)c1 [bisoctrizole],137%
10,CN(C)CCCN1c2ccccc2Sc2ccc(Cl)cc21 [chlorpromazine],156% and 416%
11,CCCC(=O)Nc1ncnc2c1ncn2[C@@H]1O[C@@H]2COP(=O)(O)O[C@H]2[C@H]1OC(=O)CCC,213%
12,OCc1ccccc1O,162%
13,CN1CCC(=C2c3ccccc3CCc3cccnc32)CC1,198%
14,O=C(N[C@H]1CCS[C@H]2CCC[C@@H](C(=O)O)N2C1=O)[C@@H](S)Cc1ccccc1 [omapatrilat],68.7%
15,CCCCCN(CCCOC)C(=O)C(CCC(=O)O)NC(=O)c1ccc(Cl)c(Cl)c1 (stereo not given) [loxiglumide],139%
16,N=C(N)c1ccc(OCCCCCOc2ccc(C(=N)N)cc2)cc1 [pentamidine],247% and 319%
17,NCCCC(O)(P(=O)(O)O)P(=O)(O)O [alendronic acid],31.2%
18,Oc1c(I)cc(Cl)c2cccnc12 [clioquinol],158%
19,COc1ccc(-c2cc(=S)ss2)cc1 [Anethole-trithione],239%
20,CC1=C(/C=C/C(C)=C/C=C/C(C)=C/CO)C(C)(C)CCC1 [Vitamin A (Retinol)],283%

# Single entries from above:
# Value of CN(C)CCCN1c2ccccc2Sc2ccc(Cl)cc21 [chlorpromazine] under percent viability: 156% and 416%
# Value of CN(CC(=O)O)C(=N)N [Creatine] under percent viability: 207%

# — the supplement of paper PMC8256030
